Some entries share one result that the patent states for a list of compounds. For at least one compound, name, drawing or mass did not settle the structure.
Legend:
Format in all cases: in vivo
Details in all cases: 6 days
[1] = system: diamondback moth (Plutella xylostella (L.)); test: Test A: control of diamondback moth on mustard plant, foliar spray
[2] = system: fall armyworm (Spodoptera frugiperda (J. E. Smith)); test: Test B: control of fall armyworm on corn (maize) plant, foliar spray
[3] = system: potato leafhopper (Empoasca fabae (Harris)); test: Test C: control of potato leafhopper on Soleil bean plant, contact and/or systemic
Experimental: Test Compounds were formulated using a solution containing 10% acetone, 90% water and 300 ppm Activator 90® non-ionic surfactant (Loveland Products, Loveland, Colo., USA). The formulated Compounds were applied in 1 mL of liquid through an atomizer nozzle positioned 1.27 cm (0.5 inches) above the top of each test unit. Test Compounds were sprayed at the rates indicated, and each test was replicated three times.
For evaluating control of potato leafhopper (Empoasca fabae (Harris)) through contact and/or systemic means, the test unit consisted of a small open container with a 5-6-day-old Soleil bean plant (primary leaves emerged) inside. White sand was added to the top of the soil, and one of the primary leaves was excised prior to application of the test Compound.
Test Compounds were formulated and sprayed at 250, 50 and 10 ppm. After spraying of the formulated test Compound, the test units were allowed to dry for 1 hour before they were post-infested with 5 potato leafhoppers (18-to-21-day-old adults). A black, screened cap was placed on the top of the test unit, and the test units were held for 6 days in a growth chamber at 20° C. and 70% relative humidity. Each test unit was then visually assessed for insect mortality.

[4] = system: Western Flower Thrips (Frankliniella occidentalis (Pergande)); test: Test G: control of Western Flower Thrips on Soleil bean plant, contact and/or systemic

SMILES	control efficacy: feeding damage (40% or less feeding damage and/or 100% mortality) ([1]; sprayed at 2 ppm) [%]	control efficacy: feeding damage (40% or less feeding damage and/or 100% mortality) ([1]; sprayed at 10 ppm) [%]	control efficacy: feeding damage (40% or less feeding damage and/or 100% mortality) ([2]; sprayed at 2 ppm) [%]	control efficacy: feeding damage (40% or less feeding damage and/or 100% mortality) ([2]; sprayed at 10 ppm) [%]	mortality ([3]; sprayed at 50 ppm)	control efficacy: plant damage (30% or less plant damage and/or 100% mortality) ([4]; sprayed at 2 ppm) [%]	control efficacy: plant damage (30% or less plant damage and/or 100% mortality) ([4]; sprayed at 10 ppm) [%]	mortality ([3]; sprayed at 10 ppm)	control efficacy: feeding damage (40% or less feeding damage and/or 100% mortality) ([1]; sprayed at 50 ppm) [%]	control efficacy: feeding damage (40% or less feeding damage and/or 100% mortality) ([1]; sprayed at 250 ppm) [%]	control efficacy: feeding damage (40% or less feeding damage and/or 100% mortality) ([2]; sprayed at 50 ppm) [%]	control efficacy: feeding damage (40% or less feeding damage and/or 100% mortality) ([2]; sprayed at 250 ppm) [%]	mortality ([3]; sprayed at 250 ppm)	control efficacy: plant damage (30% or less plant damage and/or 100% mortality) ([4]; sprayed at 250 ppm) [%]
NC(=O)c1ccc(C2=NOC(c3cc(Cl)cc(Cl)c3)(C(F)(F)F)C2)c2ccoc12 (stereo not drawn) [Compound 13]	≤ 40	≤ 40	≤ 40	≤ 40	at least 80%	≤ 30	≤ 30							
CNC(=O)c1ccc(C2=NOC(c3cc(Cl)c(F)c(Cl)c3)(C(F)(F)F)C2)c2ccoc12 (stereo not drawn) [Compound 15]	≤ 40	≤ 40	≤ 40	≤ 40	at least 80%		≤ 30	at least 80%						
C[S+]([O-])CCNC(=O)c1ccc(C2=NOC(c3cc(Cl)c(F)c(Cl)c3)(C(F)(F)F)C2)c2ccoc12 (stereo not drawn) [Compound 16]	≤ 40	≤ 40	≤ 40	≤ 40	at least 80%		≤ 30	at least 80%						
O=C(NCc1cnccn1)c1ccc(C2=NOC(c3cc(Cl)c(F)c(Cl)c3)(C(F)(F)F)C2)c2ccoc12 (stereo not drawn) [Compound 18]	≤ 40	≤ 40	≤ 40	≤ 40	at least 80%		≤ 30	at least 80%						
O=C(NCc1ccncn1)c1ccc(C2=NOC(c3cc(Cl)c(F)c(Cl)c3)(C(F)(F)F)C2)c2ccoc12 (stereo not drawn) [Compound 19]	≤ 40	≤ 40	≤ 40	≤ 40	at least 80%		≤ 30	at least 80%						
CS(=O)(=O)CCNC(=O)c1ccc(C2=NOC(c3cc(Cl)c(F)c(Cl)c3)(C(F)(F)F)C2)c2occc12 (stereo not drawn) [Compound 25]	≤ 40	≤ 40		≤ 40			≤ 30		≤ 40	≤ 40	≤ 40	≤ 40	at least 80%	≤ 30
CC(C[S+](C)[O-])NC(=O)c1ccc(C2=NOC(c3cc(Cl)c(F)c(Cl)c3)(C(F)(F)F)C2)c2occc12 (stereo not drawn) [Compound 28]	≤ 40	≤ 40					≤ 30		≤ 40	≤ 40	≤ 40	≤ 40	at least 80%	≤ 30
CC(NC(=O)c1ccc(C2=NOC(c3cc(Cl)c(F)c(Cl)c3)(C(F)(F)F)C2)c2occc12)C(N)=O (stereo not drawn) [Compound 30]	≤ 40	≤ 40		≤ 40	at least 80%		≤ 30							
CC(NC(=O)c1ccc(C2=NOC(c3cc(Cl)c(F)c(Cl)c3)(C(F)(F)F)C2)c2occc12)c1ccncn1 (stereo not drawn) [Compound 31]	≤ 40	≤ 40	≤ 40	≤ 40	at least 80%		≤ 30	at least 80%						
O=C(NCc1ncccn1)c1ccc(C2=NOC(c3cc(Cl)c(F)c(Cl)c3)(C(F)(F)F)C2)c2occc12 (stereo not drawn) [Compound 32]	≤ 40	≤ 40	≤ 40	≤ 40	at least 80%		≤ 30	at least 80%						
COC(=O)C(C)NC(=O)c1ccc(C2=NOC(c3cc(Cl)c(F)c(Cl)c3)(C(F)(F)F)C2)c2occc12 (stereo not drawn) [Compound 33]	≤ 40	≤ 40	≤ 40	≤ 40	at least 80%		≤ 30	at least 80%						
N#CC1(CNC(=O)c2ccc(C3=NOC(c4cc(Cl)c(F)c(Cl)c4)(C(F)(F)F)C3)c3ccoc23)CC1 (stereo not drawn) [Compound 36]	≤ 40	≤ 40	≤ 40	≤ 40		≤ 30	≤ 30	at least 80%						
CN1C(=O)CC(NC(=O)c2ccc(C3=NOC(c4cc(Cl)c(F)c(Cl)c4)(C(F)(F)F)C3)c3ccoc23)C1=O (stereo not drawn) [Compound 60]	≤ 40		≤ 40			≤ 30		at least 80%						
CSCC(C)NC(=O)c1ccc(C2=NOC(c3cc(Cl)c(F)c(Cl)c3)(C(F)(F)F)C2)c2ccsc12 (stereo not drawn) [Compound 72]		≤ 40	≤ 40	≤ 40		≤ 30		at least 80%						
CC(NC(=O)c1ccc(C2=NOC(c3cc(Cl)c(F)c(Cl)c3)(C(F)(F)F)C2)c2ccsc12)C(N)=O (stereo not drawn) [Compound 74]	≤ 40	≤ 40	≤ 40	≤ 40		≤ 30	≤ 30	at least 80%						
CC(NC(=O)c1ccc(C2=NOC(c3cc(Cl)c(F)c(Cl)c3)(C(F)(F)F)C2)c2ccsc12)c1ncccn1 (stereo not drawn) [Compound 78]	≤ 40	≤ 40	≤ 40	≤ 40			≤ 30	at least 80%						
O=C(NCc1ccc(C2=NOC(c3cc(Cl)c(F)c(Cl)c3)(C(F)(F)F)C2)c2ccoc12)C1CC1 (stereo not drawn) [Compound 80]	≤ 40	≤ 40	≤ 40	≤ 40		≤ 30	≤ 30	at least 80%						
O=C(NCc1ccc(C2=NOC(c3cc(Cl)cc(Cl)c3)(C(F)(F)F)C2)c2ccoc12)C1CC1 (stereo not drawn) [Compound 81]	≤ 40		≤ 40			≤ 30		at least 80%						

— patent US20210309652A1, “ISOXAZOLINE COMPOUNDS FOR CONTROLLING INVERTEBRATE PESTS” (priority 2018, published 2021)
